Positions count from the first letter of the chain named. Results are given in words; binding and its absence hold for the method and conditions named. Binding seen in cells or lysates may run through a third protein. Some entries that bind do so weakly or less than the wild type. Where a sequence is shown, tags or fusion partners need not be part of it.
Tests used:
[1] = molecular target: T1, GFP-PKD2 WT (human) (UniProt Q9BZL6); test: co-IP; GFP-PKD2 (WT or deletion mutants) precipitated with GFP trap (GFP nanobody beads) from lysates of transfected HEK293 cells stimulated with H2O2 (10 mM, 10 min); blot for PKCδ
T1 sequence: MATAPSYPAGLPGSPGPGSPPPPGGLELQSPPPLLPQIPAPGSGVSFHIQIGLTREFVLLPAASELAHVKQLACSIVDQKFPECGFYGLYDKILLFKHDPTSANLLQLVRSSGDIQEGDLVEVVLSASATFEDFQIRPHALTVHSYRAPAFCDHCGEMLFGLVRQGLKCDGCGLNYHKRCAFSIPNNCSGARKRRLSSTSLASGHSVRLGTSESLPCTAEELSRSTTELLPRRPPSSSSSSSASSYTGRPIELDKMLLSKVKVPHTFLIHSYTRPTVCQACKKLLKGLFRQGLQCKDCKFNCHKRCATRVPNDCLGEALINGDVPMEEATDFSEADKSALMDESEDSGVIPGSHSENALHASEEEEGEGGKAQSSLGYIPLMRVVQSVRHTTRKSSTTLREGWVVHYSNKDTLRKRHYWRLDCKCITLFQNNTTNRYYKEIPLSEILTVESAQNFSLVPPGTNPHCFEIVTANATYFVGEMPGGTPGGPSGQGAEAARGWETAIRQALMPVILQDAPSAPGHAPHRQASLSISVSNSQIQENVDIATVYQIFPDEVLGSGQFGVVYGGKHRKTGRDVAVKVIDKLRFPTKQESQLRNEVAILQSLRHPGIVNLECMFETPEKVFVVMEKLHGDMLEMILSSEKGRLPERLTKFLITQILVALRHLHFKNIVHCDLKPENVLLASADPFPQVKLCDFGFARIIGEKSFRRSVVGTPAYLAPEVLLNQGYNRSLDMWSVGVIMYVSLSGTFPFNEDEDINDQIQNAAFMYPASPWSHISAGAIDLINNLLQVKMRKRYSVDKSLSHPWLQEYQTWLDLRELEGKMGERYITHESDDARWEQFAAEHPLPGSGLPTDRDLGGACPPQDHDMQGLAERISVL

Amino acid sequences for entries named in this document (tags omitted). A change or cut given only in a name is not applied to a line headed by its entry.
UniProt Q05655: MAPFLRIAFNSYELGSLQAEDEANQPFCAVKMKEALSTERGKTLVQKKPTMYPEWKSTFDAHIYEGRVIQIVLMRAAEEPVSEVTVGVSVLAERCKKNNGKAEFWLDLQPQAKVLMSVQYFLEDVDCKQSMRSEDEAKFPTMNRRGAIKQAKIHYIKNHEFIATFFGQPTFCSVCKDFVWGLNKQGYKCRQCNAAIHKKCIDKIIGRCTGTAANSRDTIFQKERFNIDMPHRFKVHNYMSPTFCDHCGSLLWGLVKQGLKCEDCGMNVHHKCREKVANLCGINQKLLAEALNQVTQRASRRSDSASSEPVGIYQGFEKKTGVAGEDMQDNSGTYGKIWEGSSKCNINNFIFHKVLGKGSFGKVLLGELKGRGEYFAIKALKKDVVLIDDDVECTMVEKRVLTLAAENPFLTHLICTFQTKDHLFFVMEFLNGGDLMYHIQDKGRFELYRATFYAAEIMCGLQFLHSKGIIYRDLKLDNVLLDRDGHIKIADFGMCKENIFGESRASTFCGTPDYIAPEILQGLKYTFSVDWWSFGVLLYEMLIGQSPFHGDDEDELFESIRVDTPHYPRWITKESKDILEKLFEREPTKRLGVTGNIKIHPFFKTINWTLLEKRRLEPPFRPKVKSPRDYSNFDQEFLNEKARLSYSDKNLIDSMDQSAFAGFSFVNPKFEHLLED

[2] = molecular target: T2, FLAG-PKD2 WT (protein kinase D2, wild type) (human) (UniProt Q9BZL6); test: co-IP; FLAG-PKD2 (WT or Y87F) precipitated with anti-FLAG M2 beads from lysates of transfected HEK293 cells stimulated with H2O2 (10 mM, 10 min), with or without pretreatment with PP2 (10 µM) or STI-571 (5 µM); lysis in 50 mM Tris pH 7.4, 150 mM NaCl, 15 mM EDTA, 1% NP-40; three washes with NENT150; blot for PKCδ
T2 sequence: T1 sequence

[3] = molecular target: T3, FLAG-PKD2 Y87F (human) (UniProt Q9BZL6); test: as above
T3 sequence: T1 sequence with Y87F

Measured: binding

PKCδ (from UniProt Q05655 1-676) (enzyme)
binds: all assays above

Reference: paper PMC5430542
